# Reference: PubChem BioAssay AID1159578 (Peter MacCallum Cancer Centre, 2015)
# Aim: 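Knock-downs that alter how fast lymphatic endothelial cells migrate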 (primary screen)
# Cells: human lymphatic endothelial cells
# Reagents: siRNA pool against human genes, 40 nM
# Duration: 48 h after transfection
# Read-out: 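Cells stained with dye and imaged after a scratch; covered wound area and nuclei counted, duplicates averaged, migration set against mock wells and turned into a robust z-score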
# Scale: migration robust z-score: higher = faster migration into the scratch; migration relative to mock: higher = more scratch area covered than mock; nuclei per well: higher = more cells in the well
# Hit rule: 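Migration changed when robust z exceeds 2 or falls below -2 and mean nuclei number is at least 3300; otherwise not called changed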
# Calls: active = migration changed; inactive = no migration change, or too few cells
# Here is an unselected part of about 18,000 reagents tested. Of all reagents, about 1,030 (5.7%) were called active. 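Inactive calls also include pools with fewer than 3300 nuclei, whose migration was not assessed.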 The raw values are shown without normalisation. A number with no mark means an inactive call. No sequences are given here.
Target gene,migration robust z-score,migration class with cell-count check,migration relative to mock,"nuclei per well, duplicate mean"
PRLHR (prolactin releasing hormone receptor),-0.13,migration z between -2 and 2; enough cells,0.78,5068
PTPRB (protein tyrosine phosphatase receptor type B),0.54,migration z between -2 and 2; enough cells,0.91,6210
AP1S1 (adaptor related protein complex 1 subunit sigma 1),1,migration z between -2 and 2; enough cells,1.15,5433
CAV1 (caveolin 1),1.06,migration z between -2 and 2; enough cells,1.01,4921
TMCC3 (transmembrane and coiled-coil domain family 3),0.42,migration z between -2 and 2; enough cells,1,6890
INTS11 (integrator complex subunit 11),-0.64,migration z between -2 and 2; enough cells,0.72,6374
HK2 (hexokinase 2),-0.36,migration z between -2 and 2; enough cells,0.74,4166
IPO9 (importin 9),2.11 (active),migration z above 2; enough cells,1.43,4954
MOBP (myelin associated oligodendrocyte basic protein),-0.66,migration z between -2 and 2; enough cells,0.72,4561
SFXN5 (sideroflexin 5),0.52,migration z between -2 and 2; enough cells,0.9,5133
MEST (mesoderm specific transcript),-0.21,migration z between -2 and 2; enough cells,0.76,5667
CSTF2T (cleavage stimulation factor subunit 2 tau variant),0.02,migration z between -2 and 2; enough cells,0.89,4282
ORC5 (origin recognition complex subunit 5),0.96,migration z between -2 and 2; enough cells,1.13,6666
"DECR1 (2,4-dienoyl-CoA reductase 1)",-0.6,migration z between -2 and 2; enough cells,0.69,6216
VAV3 (vav guanine nucleotide exchange factor 3),-2.1 (active),migration z below -2; enough cells,0.4,3856
GTF3C3 (general transcription factor IIIC subunit 3),-0.6,migration z between -2 and 2; enough cells,0.69,4486
CCKBR (cholecystokinin B receptor),0.42,migration z between -2 and 2; enough cells,0.88,6003
XDH (xanthine dehydrogenase),0.8,migration z between -2 and 2; enough cells,0.96,5930
VLDLR (very low density lipoprotein receptor),-0.5,migration z between -2 and 2; enough cells,0.71,6182
THAP9 (THAP domain containing 9),0.64,migration z between -2 and 2; enough cells,1.05,6308
C11orf58 (chromosome 11 open reading frame 58),0.22,migration z between -2 and 2; enough cells,0.94,5781
TPM2 (tropomyosin 2),-0.15,migration z between -2 and 2; enough cells,0.85,3938
CYP26A1 (cytochrome P450 family 26 subfamily A member 1),-0.57,migration z between -2 and 2; enough cells,0.7,5300
